Laboratory results: paper PMC11796372
These are yes or no findings as the source states them, for the method shown. For part of these data: Binding can be weak; no strength is given. For part of these data: Tags and fused reporters may be left off the sequences shown.

Columns and labels:
[1] = biological target: T1, Hha with the adenylate cyclase fragment fused to its C-terminus (E. coli (BW25113, K12)) (UniProt P0ACE3); test: two-hybrid
T1 sequence: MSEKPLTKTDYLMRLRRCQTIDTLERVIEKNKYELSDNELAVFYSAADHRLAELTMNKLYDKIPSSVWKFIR

[2] = biological target: T2, Hha with the adenylate cyclase fragment fused to its N-terminus (E. coli (BW25113, K12)) (UniProt P0ACE3); test: two-hybrid
T2 sequence: T1 sequence

[3] = biological target: T3, Cnu (YdgT), paralog of Hha (E. coli (BW25113, K12)) (UniProt P64467); test: two-hybrid; bacterial two-hybrid (split adenylate cyclase, T18 on high-copy pUT18/pUT18C, T25 on low-copy pKT25/pKNT25) in E. coli BTH101; overnight cultures spotted on LB agar with ampicillin, kanamycin, X-gal and IPTG; 30°C, 24 h or 48 h (pUT18C::hha, pUT18C::cnu); blue spot = interaction
T3 sequence: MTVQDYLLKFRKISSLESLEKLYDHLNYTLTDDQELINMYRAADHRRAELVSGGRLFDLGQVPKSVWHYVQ

[4] = biological target: T4, H-NS (M1-G85), truncated H-NS lacking its DNA-binding domain (E. coli (BW25113, K12)) (UniProt P0ACF8); test: as above
T4 sequence: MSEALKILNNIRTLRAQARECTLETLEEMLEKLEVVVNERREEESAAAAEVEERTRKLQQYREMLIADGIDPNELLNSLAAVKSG

[5] = biological target: T5, StpA (E. coli paralog of H-NS) (E. coli (BW25113, K12)) (UniProt P0ACG1); test: as above
T5 sequence: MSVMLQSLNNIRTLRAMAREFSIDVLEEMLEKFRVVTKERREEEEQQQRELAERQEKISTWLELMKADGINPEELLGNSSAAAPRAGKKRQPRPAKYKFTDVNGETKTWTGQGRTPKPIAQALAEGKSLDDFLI

[6] = biological target: T6, H-NS (E. coli chromosomal nucleoid-structuring protein), full-length, low-copy two-hybrid fusion (E. coli (BW25113, K12)) (UniProt P0ACF8); test: two-hybrid
T6 sequence: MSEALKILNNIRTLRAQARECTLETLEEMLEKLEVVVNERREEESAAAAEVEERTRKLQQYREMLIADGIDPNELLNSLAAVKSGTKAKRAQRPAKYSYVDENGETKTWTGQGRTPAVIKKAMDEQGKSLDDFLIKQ

[7] = biological target: T3, Cnu (YdgT), paralog of Hha (E. coli (BW25113, K12)); test: condition: only Cnu expressed from the low-copy vector (pKT25/pKNT25); two-hybrid; bacterial two-hybrid as above, combination with Cnu on the low-copy vector (pKT25/pKNT25) and Sfx on the high-copy vector (pUT18); 30°C, 24 h

In the case of “Sfx (∆NT), N-terminally truncated variant (∆D3-E8) (plasmid R6K (IncX2))”, the binding [1] is reported as “no binding”, the binding [2] is reported as “no binding” and the binding [3] is reported as “no binding”. For the same substance, the binding [4] was “no binding” and the binding [5] was “no binding”.
“Sfx (H-NS homolog encoded by the IncX2 plasmid R6K), wild type (from UniProt I6RFM1)” was tested, and the binding [6] was “binds”, the binding [1] was “binds” and the binding [2] was “binds”. The binding [7] was “no binding”, the binding [3] was “binds” and the binding [4] was “binds”. For the same substance, the binding [5] was “binds”.
